Laboratory results as given in the supplement of paper PMC12823440, “Inhibitors supercharge kinase turnover through native proteolytic circuits” (Nature, 2025).
The list shows a part of the results. The calls rarely recur for the same compound in another form.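 Kinases, fused to nanoluciferase, were expressed in K562 cells; luminescence was measured every 4 h from 2 to 18 h as percent of control (DMSO = 100%, positive control = 0%). A time point is decreased if signal falls significantly (2 sigma). Hits were called by the authors by a rule that is not shown; the count of time points alone does not decide it.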

Amino acid sequences for entries named in this document (tags omitted). A change or cut given only in a name is not applied to a line headed by its entry.
UniProt Q16288, whole entry, looked up: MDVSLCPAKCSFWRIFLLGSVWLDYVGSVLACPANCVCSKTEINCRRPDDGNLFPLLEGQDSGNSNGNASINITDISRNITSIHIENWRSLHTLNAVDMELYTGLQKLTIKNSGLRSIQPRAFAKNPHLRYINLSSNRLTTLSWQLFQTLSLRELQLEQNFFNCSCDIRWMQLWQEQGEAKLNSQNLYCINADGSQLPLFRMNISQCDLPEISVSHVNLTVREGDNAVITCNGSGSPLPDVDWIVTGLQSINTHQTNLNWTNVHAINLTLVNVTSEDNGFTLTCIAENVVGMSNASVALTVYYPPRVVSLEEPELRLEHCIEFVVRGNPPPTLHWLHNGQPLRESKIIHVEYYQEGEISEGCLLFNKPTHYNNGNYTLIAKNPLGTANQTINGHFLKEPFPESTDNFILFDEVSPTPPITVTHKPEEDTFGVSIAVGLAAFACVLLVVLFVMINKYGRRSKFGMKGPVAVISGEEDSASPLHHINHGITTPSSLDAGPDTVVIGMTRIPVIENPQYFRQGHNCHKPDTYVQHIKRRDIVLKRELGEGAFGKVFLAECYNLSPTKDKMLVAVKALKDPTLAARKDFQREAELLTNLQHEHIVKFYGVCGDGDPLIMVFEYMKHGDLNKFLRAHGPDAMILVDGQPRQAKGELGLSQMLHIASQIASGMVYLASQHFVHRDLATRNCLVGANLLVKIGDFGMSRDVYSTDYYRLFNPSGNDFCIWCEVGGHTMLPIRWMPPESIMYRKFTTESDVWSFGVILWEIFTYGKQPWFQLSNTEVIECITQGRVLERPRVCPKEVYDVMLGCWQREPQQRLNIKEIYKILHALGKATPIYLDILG
UniProt P53671: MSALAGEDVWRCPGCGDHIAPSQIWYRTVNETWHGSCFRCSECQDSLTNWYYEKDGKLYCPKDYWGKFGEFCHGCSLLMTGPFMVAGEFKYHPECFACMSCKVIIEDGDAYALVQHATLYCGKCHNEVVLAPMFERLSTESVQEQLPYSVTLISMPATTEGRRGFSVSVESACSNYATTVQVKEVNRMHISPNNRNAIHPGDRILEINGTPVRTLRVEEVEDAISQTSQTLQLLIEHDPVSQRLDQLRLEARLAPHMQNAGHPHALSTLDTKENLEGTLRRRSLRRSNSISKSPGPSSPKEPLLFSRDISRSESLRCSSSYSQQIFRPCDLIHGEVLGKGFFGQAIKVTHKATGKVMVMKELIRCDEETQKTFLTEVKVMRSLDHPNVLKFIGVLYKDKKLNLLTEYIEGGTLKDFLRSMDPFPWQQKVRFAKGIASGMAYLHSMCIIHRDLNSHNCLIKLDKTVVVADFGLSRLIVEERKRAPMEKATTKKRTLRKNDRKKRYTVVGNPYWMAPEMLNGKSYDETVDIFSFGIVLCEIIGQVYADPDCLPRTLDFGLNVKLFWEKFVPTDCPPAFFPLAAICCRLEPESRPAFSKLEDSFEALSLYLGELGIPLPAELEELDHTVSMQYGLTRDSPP
UniProt Q8IWU2: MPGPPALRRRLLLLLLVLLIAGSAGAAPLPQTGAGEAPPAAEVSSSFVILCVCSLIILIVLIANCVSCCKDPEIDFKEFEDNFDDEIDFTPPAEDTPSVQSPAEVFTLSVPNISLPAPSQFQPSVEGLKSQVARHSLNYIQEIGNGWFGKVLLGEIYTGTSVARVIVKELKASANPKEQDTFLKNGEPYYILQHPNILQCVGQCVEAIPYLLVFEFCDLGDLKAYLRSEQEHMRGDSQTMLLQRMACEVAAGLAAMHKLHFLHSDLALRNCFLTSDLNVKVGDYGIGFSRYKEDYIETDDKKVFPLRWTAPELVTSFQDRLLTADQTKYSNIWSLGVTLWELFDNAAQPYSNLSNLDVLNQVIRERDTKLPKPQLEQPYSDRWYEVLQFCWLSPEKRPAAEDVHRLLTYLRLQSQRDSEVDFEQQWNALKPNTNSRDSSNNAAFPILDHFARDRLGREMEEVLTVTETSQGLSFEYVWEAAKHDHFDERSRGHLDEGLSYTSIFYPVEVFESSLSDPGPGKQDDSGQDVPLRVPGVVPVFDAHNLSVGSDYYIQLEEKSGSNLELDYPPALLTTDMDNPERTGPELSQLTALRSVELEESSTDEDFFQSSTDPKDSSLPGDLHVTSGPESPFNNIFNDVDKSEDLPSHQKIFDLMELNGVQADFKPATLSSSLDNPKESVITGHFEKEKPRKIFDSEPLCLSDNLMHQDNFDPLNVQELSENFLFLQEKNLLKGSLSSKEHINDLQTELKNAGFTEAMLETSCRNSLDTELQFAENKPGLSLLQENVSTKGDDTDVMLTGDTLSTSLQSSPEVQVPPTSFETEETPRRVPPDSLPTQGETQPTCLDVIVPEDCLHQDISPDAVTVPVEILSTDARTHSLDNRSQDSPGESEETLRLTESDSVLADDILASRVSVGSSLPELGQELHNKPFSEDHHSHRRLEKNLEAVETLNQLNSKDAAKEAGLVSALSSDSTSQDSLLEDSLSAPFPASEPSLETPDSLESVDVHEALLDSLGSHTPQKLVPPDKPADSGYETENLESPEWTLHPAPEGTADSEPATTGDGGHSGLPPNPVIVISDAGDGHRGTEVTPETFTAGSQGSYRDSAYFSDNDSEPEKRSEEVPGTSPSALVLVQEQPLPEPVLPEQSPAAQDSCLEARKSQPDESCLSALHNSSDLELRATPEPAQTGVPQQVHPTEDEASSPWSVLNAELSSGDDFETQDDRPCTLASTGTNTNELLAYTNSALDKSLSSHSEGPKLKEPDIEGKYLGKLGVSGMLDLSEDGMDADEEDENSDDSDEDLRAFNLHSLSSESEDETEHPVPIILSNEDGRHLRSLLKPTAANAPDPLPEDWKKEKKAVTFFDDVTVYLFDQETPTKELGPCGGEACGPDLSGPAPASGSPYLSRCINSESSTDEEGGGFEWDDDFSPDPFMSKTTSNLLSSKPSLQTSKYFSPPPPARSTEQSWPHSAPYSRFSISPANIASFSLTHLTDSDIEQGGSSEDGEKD
UniProt Q9UQM7, whole entry: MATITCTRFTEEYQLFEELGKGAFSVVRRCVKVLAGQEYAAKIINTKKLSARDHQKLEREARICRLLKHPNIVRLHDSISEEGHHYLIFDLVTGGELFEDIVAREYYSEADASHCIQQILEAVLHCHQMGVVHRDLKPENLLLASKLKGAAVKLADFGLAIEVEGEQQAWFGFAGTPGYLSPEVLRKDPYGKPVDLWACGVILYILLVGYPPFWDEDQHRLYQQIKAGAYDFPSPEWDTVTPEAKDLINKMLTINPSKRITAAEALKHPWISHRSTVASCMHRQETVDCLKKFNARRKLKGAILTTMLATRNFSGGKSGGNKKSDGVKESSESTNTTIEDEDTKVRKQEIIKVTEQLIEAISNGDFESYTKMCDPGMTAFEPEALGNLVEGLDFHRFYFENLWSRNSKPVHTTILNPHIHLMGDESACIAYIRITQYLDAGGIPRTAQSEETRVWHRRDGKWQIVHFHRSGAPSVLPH
UniProt Q13546: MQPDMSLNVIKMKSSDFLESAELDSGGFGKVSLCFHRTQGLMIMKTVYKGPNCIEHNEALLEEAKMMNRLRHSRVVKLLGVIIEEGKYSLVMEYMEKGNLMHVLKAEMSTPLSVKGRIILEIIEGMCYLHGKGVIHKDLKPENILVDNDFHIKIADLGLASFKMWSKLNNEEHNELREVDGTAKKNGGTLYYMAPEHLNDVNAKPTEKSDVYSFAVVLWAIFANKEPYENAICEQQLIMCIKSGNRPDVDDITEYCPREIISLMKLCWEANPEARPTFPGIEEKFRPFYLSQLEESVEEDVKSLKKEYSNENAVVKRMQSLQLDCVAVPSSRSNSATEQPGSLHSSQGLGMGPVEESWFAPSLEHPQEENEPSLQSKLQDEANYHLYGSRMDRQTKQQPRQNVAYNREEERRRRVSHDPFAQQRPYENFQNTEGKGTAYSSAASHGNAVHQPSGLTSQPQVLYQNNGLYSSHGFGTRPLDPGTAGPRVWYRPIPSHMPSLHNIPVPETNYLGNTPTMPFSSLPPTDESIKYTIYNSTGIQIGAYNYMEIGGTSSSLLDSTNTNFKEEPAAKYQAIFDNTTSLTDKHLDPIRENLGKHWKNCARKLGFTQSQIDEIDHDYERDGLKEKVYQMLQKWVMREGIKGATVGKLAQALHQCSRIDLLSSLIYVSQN
UniProt P49840: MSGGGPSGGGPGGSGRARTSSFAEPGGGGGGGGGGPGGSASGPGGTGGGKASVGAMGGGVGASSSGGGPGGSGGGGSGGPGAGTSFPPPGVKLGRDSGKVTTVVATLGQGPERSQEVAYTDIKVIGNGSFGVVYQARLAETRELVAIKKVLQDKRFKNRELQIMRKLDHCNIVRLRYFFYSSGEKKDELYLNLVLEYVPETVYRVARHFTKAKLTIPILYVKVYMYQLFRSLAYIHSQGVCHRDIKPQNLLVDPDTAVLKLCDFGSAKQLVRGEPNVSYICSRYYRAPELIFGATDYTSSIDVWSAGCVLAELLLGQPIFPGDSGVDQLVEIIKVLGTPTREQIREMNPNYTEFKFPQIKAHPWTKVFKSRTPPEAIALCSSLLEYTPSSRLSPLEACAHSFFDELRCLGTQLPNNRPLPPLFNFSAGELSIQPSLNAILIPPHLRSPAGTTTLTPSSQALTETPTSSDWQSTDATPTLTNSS
UniProt P23458: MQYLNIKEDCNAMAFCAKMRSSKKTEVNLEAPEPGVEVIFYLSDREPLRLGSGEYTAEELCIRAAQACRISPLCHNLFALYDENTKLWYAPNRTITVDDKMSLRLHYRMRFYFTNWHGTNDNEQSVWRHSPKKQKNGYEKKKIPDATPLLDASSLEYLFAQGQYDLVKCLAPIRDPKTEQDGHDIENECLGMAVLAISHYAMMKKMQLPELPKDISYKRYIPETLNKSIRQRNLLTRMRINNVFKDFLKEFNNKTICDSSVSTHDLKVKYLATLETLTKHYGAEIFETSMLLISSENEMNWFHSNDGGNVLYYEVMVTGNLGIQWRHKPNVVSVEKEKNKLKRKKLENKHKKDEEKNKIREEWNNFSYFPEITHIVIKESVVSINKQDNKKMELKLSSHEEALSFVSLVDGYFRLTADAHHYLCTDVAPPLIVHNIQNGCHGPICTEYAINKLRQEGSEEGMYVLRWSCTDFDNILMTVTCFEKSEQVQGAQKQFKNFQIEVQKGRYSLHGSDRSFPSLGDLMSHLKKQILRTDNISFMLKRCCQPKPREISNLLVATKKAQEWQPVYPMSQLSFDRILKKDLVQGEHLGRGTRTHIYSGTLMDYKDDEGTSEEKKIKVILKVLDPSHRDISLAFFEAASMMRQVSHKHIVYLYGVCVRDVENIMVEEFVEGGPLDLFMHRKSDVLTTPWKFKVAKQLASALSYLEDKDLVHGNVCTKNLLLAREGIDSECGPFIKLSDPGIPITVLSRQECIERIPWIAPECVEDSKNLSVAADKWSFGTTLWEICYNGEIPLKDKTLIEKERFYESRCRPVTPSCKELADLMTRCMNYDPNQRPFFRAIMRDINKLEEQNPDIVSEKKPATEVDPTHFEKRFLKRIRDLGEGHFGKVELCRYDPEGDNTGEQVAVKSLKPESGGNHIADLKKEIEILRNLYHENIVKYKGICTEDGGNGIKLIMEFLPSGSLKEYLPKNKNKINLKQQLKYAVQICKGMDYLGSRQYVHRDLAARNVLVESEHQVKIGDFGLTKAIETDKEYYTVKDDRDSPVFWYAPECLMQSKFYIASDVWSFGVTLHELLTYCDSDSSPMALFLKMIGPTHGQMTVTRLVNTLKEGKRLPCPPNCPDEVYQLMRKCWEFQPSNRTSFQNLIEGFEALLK
UniProt P42680: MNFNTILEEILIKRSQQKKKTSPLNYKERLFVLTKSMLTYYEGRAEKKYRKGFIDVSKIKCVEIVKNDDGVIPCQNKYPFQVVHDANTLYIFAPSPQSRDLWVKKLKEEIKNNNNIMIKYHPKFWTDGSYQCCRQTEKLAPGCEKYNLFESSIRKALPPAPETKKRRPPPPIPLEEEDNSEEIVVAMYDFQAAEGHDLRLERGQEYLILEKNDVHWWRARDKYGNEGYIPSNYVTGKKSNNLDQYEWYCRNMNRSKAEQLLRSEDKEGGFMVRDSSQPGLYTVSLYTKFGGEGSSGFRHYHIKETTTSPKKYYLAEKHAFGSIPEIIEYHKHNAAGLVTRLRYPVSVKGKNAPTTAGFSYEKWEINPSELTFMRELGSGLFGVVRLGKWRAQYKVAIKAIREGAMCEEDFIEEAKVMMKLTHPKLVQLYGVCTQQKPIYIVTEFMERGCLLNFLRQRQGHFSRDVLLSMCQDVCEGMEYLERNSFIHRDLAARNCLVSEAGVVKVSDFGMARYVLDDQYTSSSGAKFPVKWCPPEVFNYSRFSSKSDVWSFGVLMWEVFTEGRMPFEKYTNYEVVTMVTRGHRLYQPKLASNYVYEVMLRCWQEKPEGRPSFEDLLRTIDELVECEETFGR

Columns and labels:
Assay in all cases: number of time points (of 5) at which kinase-Nluc abundance scored as decreased, DMSO-normalised (count); higher = more persistent destabilization
Conditions in all cases: 10 µM; K562; 2-18 h
[1] = compound: O=C(Nc1ccncc1)Nc1ccc(-c2nc(N3CCOCC3)nc(N3C4CCC3COC4)n2)cc1
Larotrectinib sulfate = compound: O=C(Nc1cnn2ccc(N3CCC[C@@H]3c3cc(F)ccc3F)nc12)N1CC[C@H](O)C1 [Larotrectinib sulfate]
Larotrectinib = compound: O=C(Nc1cnn2ccc(N3CCC[C@@H]3c3cc(F)ccc3F)nc12)N1CC[C@H](O)C1 [Larotrectinib]
[2] = compound: O=C(O)c1ccc2c(c1)nc(Nc1cccc(Cl)c1)c1ccncc12 [Silmitasertib (sodium salt)]
Silmitasertib = compound: O=C(O)c1ccc2c(c1)nc(Nc1cccc(Cl)c1)c1ccncc12 [Silmitasertib]
[3] = compound: O=C(c1ccc(F)c(F)c1Nc1ccc(I)cc1F)N1CC(O)([C@@H]2CCCCN2)C1 [Cobimetinib (hemifumarate)]
Cobimetinib = compound: O=C(c1ccc(F)c(F)c1Nc1ccc(I)cc1F)N1CC(O)([C@@H]2CCCCN2)C1 [Cobimetinib]
[4] = compound: O=C(c1nn(-c2ccc(CN3CCOCC3)cc2)c2c1CS(=O)(=O)c1c(F)cccc1-2)N1CCOCC1
(E/Z)-GSK-3β inhibitor 1 = compound: O=C1Nc2ccccc2/C1=C/c1ccccn1 [(E/Z)-GSK-3β inhibitor 1]
GSK-3β inhibitor 1 = compound: O=C1Nc2ccccc2/C1=C/c1ccccn1 [GSK-3β inhibitor 1]

Measured: number of time points

NTRK3 (UniProt Q16288)
2: [2]
0: Larotrectinib sulfate | Larotrectinib | Silmitasertib | [3] | Cobimetinib | [4] | (E/Z)-GSK-3β inhibitor 1 | GSK-3β inhibitor 1
4: [1]

IRAK3 (UniProt Q9Y616)
1: [3]
0: [1] | Larotrectinib sulfate | Larotrectinib | [2] | Silmitasertib | Cobimetinib | [4] | (E/Z)-GSK-3β inhibitor 1 | GSK-3β inhibitor 1

FLT3 (UniProt P36888)
3: [2]
1: Cobimetinib
0: [1] | Larotrectinib sulfate | Larotrectinib | Silmitasertib | [3] | [4] | (E/Z)-GSK-3β inhibitor 1 | GSK-3β inhibitor 1

EGFR_L858R (UniProt P00533)
2: [2]
1: Cobimetinib
0: [1] | Larotrectinib sulfate | Larotrectinib | Silmitasertib | [3] | [4] | (E/Z)-GSK-3β inhibitor 1 | GSK-3β inhibitor 1

CDK10 (UniProt Q15131)
0: [1] | Larotrectinib sulfate | Larotrectinib | [2] | Silmitasertib | [3] | Cobimetinib | [4] | (E/Z)-GSK-3β inhibitor 1 | GSK-3β inhibitor 1

MAPK1 (UniProt P28482)
0: [1] | Larotrectinib sulfate | Larotrectinib | [2] | Silmitasertib | [3] | Cobimetinib | [4] | (E/Z)-GSK-3β inhibitor 1 | GSK-3β inhibitor 1

STK38 (UniProt Q15208)
1: [3] | Cobimetinib
3: [1]
0: Larotrectinib sulfate | Larotrectinib | [2] | Silmitasertib | [4] | (E/Z)-GSK-3β inhibitor 1 | GSK-3β inhibitor 1

MAPK4 (UniProt P31152)
0: [1] | Larotrectinib sulfate | Larotrectinib | [2] | Silmitasertib | [3] | Cobimetinib | [4] | (E/Z)-GSK-3β inhibitor 1 | GSK-3β inhibitor 1

CHEK2 (UniProt O96017)
0: [1] | Larotrectinib sulfate | Larotrectinib | Silmitasertib | Cobimetinib | [4] | (E/Z)-GSK-3β inhibitor 1 | GSK-3β inhibitor 1
2: [2]
1: [3]

ERBB3 (UniProt P21860)
4: [2]
2: Cobimetinib
0: [1] | Larotrectinib sulfate | Larotrectinib | Silmitasertib | [4] | (E/Z)-GSK-3β inhibitor 1 | GSK-3β inhibitor 1
3: [3]

LIMK2 (UniProt P53671)
1: [3]
0: [1] | Larotrectinib sulfate | Larotrectinib | [2] | Silmitasertib | Cobimetinib | [4] | (E/Z)-GSK-3β inhibitor 1 | GSK-3β inhibitor 1

PTK2 (UniProt Q05397)
1: [2] | [3]
0: Larotrectinib sulfate | Larotrectinib | Cobimetinib | [4] | (E/Z)-GSK-3β inhibitor 1 | GSK-3β inhibitor 1
3: [1] | Silmitasertib

ALK (UniProt Q9UM73)
2: [2] | Cobimetinib
0: [1] | Larotrectinib sulfate | Larotrectinib | Silmitasertib | [3] | [4] | (E/Z)-GSK-3β inhibitor 1 | GSK-3β inhibitor 1

EGFR_L718V (UniProt P00533)
0: [1] | Larotrectinib sulfate | Larotrectinib | Silmitasertib | Cobimetinib | [4] | (E/Z)-GSK-3β inhibitor 1 | GSK-3β inhibitor 1
1: [2] | [3]

AURKB (UniProt Q96GD4)
0: Larotrectinib sulfate | Larotrectinib | [2] | Silmitasertib | [3] | [4] | (E/Z)-GSK-3β inhibitor 1 | GSK-3β inhibitor 1
1: Cobimetinib
3: [1]

PRKCA (UniProt P17252)
0: [1] | Larotrectinib sulfate | Larotrectinib | [2] | Silmitasertib | [3] | Cobimetinib | [4] | (E/Z)-GSK-3β inhibitor 1 | GSK-3β inhibitor 1

LMTK2 (UniProt Q8IWU2)
0: [1] | Larotrectinib sulfate | Larotrectinib | [2] | Silmitasertib | [3] | Cobimetinib | [4] | (E/Z)-GSK-3β inhibitor 1 | GSK-3β inhibitor 1

RET_M918T (clone: RET_mut) (UniProt P07949)
3: [2]
4: [1]
0: Larotrectinib sulfate | Larotrectinib | Silmitasertib | [3] | Cobimetinib | [4] | (E/Z)-GSK-3β inhibitor 1 | GSK-3β inhibitor 1

ARAF (UniProt P10398)
0: [1] | Larotrectinib sulfate | Larotrectinib | [2] | Silmitasertib | [3] | Cobimetinib | [4] | (E/Z)-GSK-3β inhibitor 1 | GSK-3β inhibitor 1

CAMK2A (UniProt Q9UQM7)
0: [1] | Larotrectinib sulfate | Larotrectinib | [2] | Silmitasertib | [3] | Cobimetinib | [4] | (E/Z)-GSK-3β inhibitor 1 | GSK-3β inhibitor 1

DYRK2 (UniProt Q92630)
0: [1] | Larotrectinib sulfate | Larotrectinib | Silmitasertib | [4] | (E/Z)-GSK-3β inhibitor 1 | GSK-3β inhibitor 1
4: [2]
3: [3] | Cobimetinib

RAF1 (UniProt P04049)
4: [1] | Cobimetinib
1: (E/Z)-GSK-3β inhibitor 1
3: [3]
0: Larotrectinib sulfate | Larotrectinib | Silmitasertib | [4] | GSK-3β inhibitor 1
2: [2]

AURKC (UniProt Q9UQB9)
0: [1] | Larotrectinib sulfate | Larotrectinib | [2] | Silmitasertib | [3] | Cobimetinib | [4] | (E/Z)-GSK-3β inhibitor 1 | GSK-3β inhibitor 1

CDK6 (UniProt Q00534)
0: [1] | Larotrectinib sulfate | Larotrectinib | [2] | Silmitasertib | [3] | Cobimetinib | [4] | (E/Z)-GSK-3β inhibitor 1 | GSK-3β inhibitor 1

RIPK1 (UniProt Q13546)
0: Larotrectinib sulfate | Larotrectinib | Silmitasertib | Cobimetinib | [4] | (E/Z)-GSK-3β inhibitor 1 | GSK-3β inhibitor 1
3: [2]
1: [1] | [3]

Taken from the results shown (3 entries):
IRAK3 (UniProt Q9Y616)
1: [3]
0: [1] | Larotrectinib sulfate | Larotrectinib | [2] | Silmitasertib | Cobimetinib | [4] | (E/Z)-GSK-3β inhibitor 1 | GSK-3β inhibitor 1

FLT3 (UniProt P36888)
3: [2]
1: Cobimetinib
0: [1] | Larotrectinib sulfate | Larotrectinib | Silmitasertib | [3] | [4] | (E/Z)-GSK-3β inhibitor 1 | GSK-3β inhibitor 1

EGFR_L858R (UniProt P00533)
2: [2]
1: Cobimetinib
0: [1] | Larotrectinib sulfate | Larotrectinib | Silmitasertib | [3] | [4] | (E/Z)-GSK-3β inhibitor 1 | GSK-3β inhibitor 1

Remaining list, next part.

PLK1 (UniProt P53350)
0: [1] | Larotrectinib sulfate | Larotrectinib | [2] | Silmitasertib | [4] | (E/Z)-GSK-3β inhibitor 1 | GSK-3β inhibitor 1
1: [3]
2: Cobimetinib

NTRK2 (UniProt Q16620)
1: [2]
0: [1] | Larotrectinib sulfate | Larotrectinib | Silmitasertib | Cobimetinib | [4] | (E/Z)-GSK-3β inhibitor 1 | GSK-3β inhibitor 1

RIOK1 (UniProt Q9BRS2)
3: [2]
0: [1] | Larotrectinib sulfate | Larotrectinib | Silmitasertib | Cobimetinib | [4] | (E/Z)-GSK-3β inhibitor 1 | GSK-3β inhibitor 1
2: [3]

GSK3A (UniProt P49840)
0: [1] | Larotrectinib sulfate | Larotrectinib | [2] | Silmitasertib | [3] | Cobimetinib | [4] | (E/Z)-GSK-3β inhibitor 1 | GSK-3β inhibitor 1

PBK (UniProt Q96KB5)
0: [1] | Larotrectinib sulfate | Larotrectinib | [2] | Silmitasertib | [3] | Cobimetinib | [4] | (E/Z)-GSK-3β inhibitor 1 | GSK-3β inhibitor 1

JAK1 (UniProt P23458)
3: [2]
0: [1] | Larotrectinib sulfate | Larotrectinib | Silmitasertib | [3] | Cobimetinib | [4] | (E/Z)-GSK-3β inhibitor 1 | GSK-3β inhibitor 1

CSK (UniProt P41240)
0: [1] | Larotrectinib sulfate | Larotrectinib | [2] | Silmitasertib | [3] | Cobimetinib | [4] | (E/Z)-GSK-3β inhibitor 1 | GSK-3β inhibitor 1

SPHK1 (UniProt Q9NYA1)
0: [1] | Larotrectinib sulfate | Larotrectinib | [2] | Silmitasertib | [3] | Cobimetinib | [4] | (E/Z)-GSK-3β inhibitor 1 | GSK-3β inhibitor 1

CAMK2G (UniProt Q13555)
0: [1] | Larotrectinib sulfate | Larotrectinib | Silmitasertib | [3] | [4] | (E/Z)-GSK-3β inhibitor 1 | GSK-3β inhibitor 1
1: [2] | Cobimetinib

FGFR1 (UniProt P11362)
2: [2]
0: Larotrectinib sulfate | Larotrectinib | Silmitasertib | [3] | Cobimetinib | [4] | (E/Z)-GSK-3β inhibitor 1 | GSK-3β inhibitor 1
5: [1]

LYN (UniProt P07948)
2: [2]
0: [1] | Larotrectinib sulfate | Larotrectinib | Silmitasertib | [3] | Cobimetinib | [4] | (E/Z)-GSK-3β inhibitor 1 | GSK-3β inhibitor 1

YES1 (UniProt P07947)
1: [2]
0: [1] | Larotrectinib sulfate | Larotrectinib | Silmitasertib | [3] | Cobimetinib | [4] | (E/Z)-GSK-3β inhibitor 1 | GSK-3β inhibitor 1

TEC (UniProt P42680)
2: [2]
0: [1] | Larotrectinib sulfate | Larotrectinib | Silmitasertib | [3] | Cobimetinib | [4] | (E/Z)-GSK-3β inhibitor 1 | GSK-3β inhibitor 1

EGFR_L861Q (UniProt P00533)
0: [1] | Larotrectinib sulfate | Larotrectinib | Silmitasertib | [4] | GSK-3β inhibitor 1
3: [2] | Cobimetinib
2: [3] | (E/Z)-GSK-3β inhibitor 1

FGR (UniProt P09769)
0: [1] | Larotrectinib sulfate | Larotrectinib | [2] | Silmitasertib | [3] | Cobimetinib | [4] | (E/Z)-GSK-3β inhibitor 1 | GSK-3β inhibitor 1

EGFR (UniProt P00533)
3: Silmitasertib
0: [1] | Larotrectinib sulfate | Larotrectinib | [3] | Cobimetinib | [4] | (E/Z)-GSK-3β inhibitor 1 | GSK-3β inhibitor 1
1: [2]

RAF1_S257L (clone: RAF1_mut) (UniProt P04049)
3: [2]
4: [3]
0: [1] | Larotrectinib sulfate | Larotrectinib | Silmitasertib | [4] | (E/Z)-GSK-3β inhibitor 1 | GSK-3β inhibitor 1
5: Cobimetinib

MAPKAPK2 (UniProt P49137)
0: [1] | Larotrectinib sulfate | Larotrectinib | [2] | Silmitasertib | [3] | Cobimetinib | [4] | (E/Z)-GSK-3β inhibitor 1 | GSK-3β inhibitor 1

LIMK1 (UniProt P53667)
0: Larotrectinib sulfate | Larotrectinib | Silmitasertib | [4] | (E/Z)-GSK-3β inhibitor 1 | GSK-3β inhibitor 1
4: [1]
2: [2] | [3] | Cobimetinib

RIPK2 (UniProt O43353)
2: [3] | Cobimetinib
0: [1] | Larotrectinib sulfate | Larotrectinib | Silmitasertib | [4] | (E/Z)-GSK-3β inhibitor 1 | GSK-3β inhibitor 1
3: [2]

CSF1R (UniProt P07333)
1: [2]
4: [1]
0: Larotrectinib sulfate | Larotrectinib | Silmitasertib | [3] | Cobimetinib | [4] | (E/Z)-GSK-3β inhibitor 1 | GSK-3β inhibitor 1

PIK4CA (UniProt P42356)
0: [1] | Larotrectinib sulfate | Larotrectinib | Silmitasertib | [3] | [4] | (E/Z)-GSK-3β inhibitor 1 | GSK-3β inhibitor 1
2: [2]
1: Cobimetinib

CDK5 (UniProt Q00535)
0: [1] | Larotrectinib sulfate | Larotrectinib | [2] | Silmitasertib | [3] | Cobimetinib | [4] | (E/Z)-GSK-3β inhibitor 1 | GSK-3β inhibitor 1
